This is one part of the list.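 How the source made its calls: active = dose-dependent thermal stabilisation significant by F-test of dose-response against flat model at 10% FDR; inactive = not significant.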
Biological target: T1, SARS2 (UniProt Q9NP81)
T1 sequence (whole entry): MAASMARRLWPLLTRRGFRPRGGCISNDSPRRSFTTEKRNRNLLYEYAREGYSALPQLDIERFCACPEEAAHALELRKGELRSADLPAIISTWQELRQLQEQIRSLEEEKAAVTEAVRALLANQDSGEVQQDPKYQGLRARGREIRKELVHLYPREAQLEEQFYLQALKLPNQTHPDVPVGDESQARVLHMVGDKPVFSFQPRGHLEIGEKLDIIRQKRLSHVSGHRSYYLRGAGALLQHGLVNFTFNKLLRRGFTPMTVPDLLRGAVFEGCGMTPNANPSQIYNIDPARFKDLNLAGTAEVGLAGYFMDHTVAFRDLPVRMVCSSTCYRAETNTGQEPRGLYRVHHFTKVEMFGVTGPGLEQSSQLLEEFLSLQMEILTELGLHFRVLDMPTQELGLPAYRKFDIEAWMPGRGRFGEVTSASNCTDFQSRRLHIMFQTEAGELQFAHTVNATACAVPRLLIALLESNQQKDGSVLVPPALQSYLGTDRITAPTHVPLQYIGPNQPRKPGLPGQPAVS
Experiment: dose-dependent thermal stabilisation call (2D-TPP, DLPTP, 10% FDR) (binary (1 = stabilised)); higher = stabilised by the compound
Conditions: system: Jurkat gel-filtered lysate; concentration range 1-500 µM
Procedure: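 2D thermal proteome profiling in gel-filtered Jurkat E6.1 lysate (2 mg/ml) treated with NaGTP (0, 1, 10, 100, 500 uM) for 10 min at room temperature, then heated 3 min at one of 12 temperatures (42-63.9 C). Soluble protein was quantified by TMT10 MS. The value is the DLPTP call of the paper: dose-dependent thermal stabilisation over all temperatures at 10% FDR (F-test of a dose-response against a flat model); one experiment, one call per tested protein.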

Structure (SMILES)	dose-dependent thermal stabilisation call
Nc1nc2c(ncn2[C@@H]2O[C@H](COP(=O)(O)OP(=O)(O)OP(=O)(O)O)[C@@H](O)[C@H]2O)c(=O)[nH]1	active: 1
